Results from doi:10.1101/2022.11.03.515106 (bioRxiv, 2022).
Positions count from the first letter of the chain named. No constants are given. Whether binding was seen depends on the method and setting. Binding seen in cells or lysates may run through a third protein. Some binding calls cover weakened binding; strength is not graded here. For part of these data: Tags and fused reporters may be left off the sequences shown. Blank lines part the entries; values can stand above or below the binder they belong to.

Legend:
Test in all cases: co-IP
[1] = target: T1, Flag-TTDN1 lacking 60 N-terminal amino acids (human) (UniProt Q8TAP9)
T1 sequence: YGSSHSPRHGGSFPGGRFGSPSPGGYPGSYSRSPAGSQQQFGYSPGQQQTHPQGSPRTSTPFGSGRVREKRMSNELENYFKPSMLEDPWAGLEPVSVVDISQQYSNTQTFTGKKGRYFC

[2] = target: T2, Flag-TTDN1 lacking the first N-terminal 20 amino acids (human) (UniProt Q8TAP9)
T2 sequence: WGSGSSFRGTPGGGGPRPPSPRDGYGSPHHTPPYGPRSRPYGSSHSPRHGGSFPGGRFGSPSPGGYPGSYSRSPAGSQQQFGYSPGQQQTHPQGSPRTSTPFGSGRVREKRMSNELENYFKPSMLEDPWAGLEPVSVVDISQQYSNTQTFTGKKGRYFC

HA-TTDN1 (human) = target: T3, HA-TTDN1 (human) (UniProt Q8TAP9)
T3 sequence: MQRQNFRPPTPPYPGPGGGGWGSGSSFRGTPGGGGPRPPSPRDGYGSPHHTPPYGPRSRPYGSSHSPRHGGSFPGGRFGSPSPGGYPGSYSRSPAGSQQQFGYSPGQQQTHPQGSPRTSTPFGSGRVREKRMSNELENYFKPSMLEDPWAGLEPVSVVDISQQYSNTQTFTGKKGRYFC

Flag-TTDN1 (human) = target: T4, Flag-TTDN1 (human) (UniProt Q8TAP9)
T4 sequence: T3 sequence

Flag-TTDN1 M144V (human) = target: T5, Flag-TTDN1 M144V (human) (UniProt Q8TAP9)
T5 sequence: T3 sequence with M144V

[3] = target: T6, endogenous DBR1 (human (endogenous in 293T and HeLa-S)) (UniProt Q9UK59)
T6 sequence: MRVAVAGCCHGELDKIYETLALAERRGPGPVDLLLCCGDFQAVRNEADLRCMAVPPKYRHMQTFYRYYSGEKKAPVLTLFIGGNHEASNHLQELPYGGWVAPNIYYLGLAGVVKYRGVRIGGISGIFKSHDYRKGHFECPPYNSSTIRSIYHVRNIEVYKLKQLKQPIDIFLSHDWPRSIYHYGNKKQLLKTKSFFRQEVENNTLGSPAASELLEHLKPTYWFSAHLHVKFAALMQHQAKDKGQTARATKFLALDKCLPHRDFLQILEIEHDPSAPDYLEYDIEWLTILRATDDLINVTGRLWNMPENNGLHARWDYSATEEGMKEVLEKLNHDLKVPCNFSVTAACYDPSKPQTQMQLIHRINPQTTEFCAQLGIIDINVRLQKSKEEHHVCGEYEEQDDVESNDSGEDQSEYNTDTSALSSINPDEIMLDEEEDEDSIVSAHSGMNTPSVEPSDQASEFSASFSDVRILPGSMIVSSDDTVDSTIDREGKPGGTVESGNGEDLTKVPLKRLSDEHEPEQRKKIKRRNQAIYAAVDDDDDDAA

B1: XAB2 (protein, UniProt Q9HCS7 1-855)
chain: MVVMARLSRPERPDLVFEEEDLPYEEEIMRNQFSVKCWLRYIEFKQGAPKPRLNQLYERALKLLPCSYKLWYRYLKARRAQVKHRCVTDPAYEDVNNCHERAFVFMHKMPRLWLDYCQFLMDQGRVTHTRRTFDRALRALPITQHSRIWPLYLRFLRSHPLPETAVRGYRRFLKLSPESAEEYIEYLKSSDRLDEAAQRLATVVNDERFVSKAGKSNYQLWHELCDLISQNPDKVQSLNVDAIIRGGLTRFTDQLGKLWCSLADYYIRSGHFEKARDVYEEAIRTVMTVRDFTQVFDSYAQFEESMIAAKMETASELGREEEDDVDLELRLARFEQLISRRPLLLNSVLLRQNPHHVHEWHKRVALHQGRPREIINTYTEAVQTVDPFKATGKPHTLWVAFAKFYEDNGQLDDARVILEKATKVNFKQVDDLASVWCQCGELELRHENYDEALRLLRKATALPARRAEYFDGSEPVQNRVYKSLKVWSMLADLEESLGTFQSTKAVYDRILDLRIATPQIVINYAMFLEEHKYFEESFKAYERGISLFKWPNVSDIWSTYLTKFIARYGGRKLERARDLFEQALDGCPPKYAKTLYLLYAQLEEEWGLARHAMAVYERATRAVEPAQQYDMFNIYIKRAAEIYGVTHTRGIYQKAIEVLSDEHAREMCLRFADMECKLGEIDRARAIYSFCSQICDPRTTGAFWQTWKDFEVRHGNEDTIKEMLRIRRSVQATYNTQVNFMASQMLKVSGSATGTVSDLAPGQSGMDDMKLLEQRAEQLAAEAERDQPLRAQSKILFVRSDASREELAELAQQVNPEEIQLGEDEDEDEMDLEPNEVRLEQQSVPAAVFGSLKED
- binding [1]: no binding
- binding [2]: binds

B2: endogenous DBR1 (enzyme, UniProt Q9UK59 1-544)
chain: T6 sequence
- binding [1]: binds
- binding (HA-TTDN1 (human)): binds
- binding (Flag-TTDN1 (human)): binds
- binding (Flag-TTDN1 M144V (human)): binds

Now from value to binder:

- binding [1]: no binding
- binding [2]: binds
B3: Aquarius (AQR) (protein, UniProt O60306 1-1485)
chain: MAAPAQPKKIVAPTVSQINAEFVTQLACKYWAPHIKKKSPFDIKVIEDIYEKEIVKSRFAIRKIMLLEFSQYLENYLWMNYSPEVSSKAYLMSICCMVNEKFRENVPAWEIFKKKPDHFPFFFKHILKAALAETDGEFSLHEQTVLLLFLDHCFNSLEVDLIRSQVQQLISLPMWMGLQLARLELELKKTPKLRKFWNLIKKNDEKMDPEAREQAYQERRFLSQLIQKFISVLKSVPLSEPVTMDKVHYCERFIELMIDLEALLPTRRWFNTILDDSHLLVHCYLSNLVRREEDGHLFSQLLDMLKFYTGFEINDQTGNALTENEMTTIHYDRITSLQRAAFAHFPELYDFALSNVAEVDTRESLVKFFGPLSSNTLHQVASYLCLLPTLPKNEDTTFDKEFLLELLVSRHERRISQIQQLNQMPLYPTEKIIWDENIVPTEYYSGEGCLALPKLNLQFLTLHDYLLRNFNLFRLESTYEIRQDIEDSVSRMKPWQSEYGGVVFGGWARMAQPIVAFTVVEVAKPNIGENWPTRVRADVTINLNVRDHIKDEWEGLRKHDVCFLITVRPTKPYGTKFDRRRPFIEQVGLVYVRGCEIQGMLDDKGRVIEDGPEPRPNLRGESRTFRVFLDPNQYQQDMTNTIQNGAEDVYETFNIIMRRKPKENNFKAVLETIRNLMNTDCVVPDWLHDIILGYGDPSSAHYSKMPNQIATLDFNDTFLSIEHLKASFPGHNVKVTVEDPALQIPPFRITFPVRSGKGKKRKDADVEDEDTEEAKTLIVEPHVIPNRGPYPYNQPKRNTIQFTHTQIEAIRAGMQPGLTMVVGPPGTGKTDVAVQIISNIYHNFPEQRTLIVTHSNQALNQLFEKIMALDIDERHLLRLGHGEEELETEKDFSRYGRVNYVLARRIELLEEVKRLQKSLGVPGDASYTCETAGYFFLYQVMSRWEEYISKVKNKGSTLPDVTEVSTFFPFHEYFANAPQPIFKGRSYEEDMEIAEGCFRHIKKIFTQLEEFRASELLRSGLDRSKYLLVKEAKIIAMTCTHAALKRHDLVKLGFKYDNILMEEAAQILEIETFIPLLLQNPQDGFSRLKRWIMIGDHHQLPPVIKNMAFQKYSNMEQSLFTRFVRVGVPTVDLDAQGRARASLCNLYNWRYKNLGNLPHVQLLPEFSTANAGLLYDFQLINVEDFQGVGESEPNPYFYQNLGEAEYVVALFMYMCLLGYPADKISILTTYNGQKHLIRDIINRRCGNNPLIGRPNKVTTVDRFQGQQNDYILLSLVRTRAVGHLRDVRRLVVAMSRARLGLYIFARVSLFQNCFELTPAFSQLTARPLHLHIIPTEPFPTTRKNGERPSHEVQIIKNMPQMANFVYNMYMHLIQTTHHYHQTLLQLPPAMVEEGEEVQNQETELETEEEAMTVQADIIPSPTDTSCRQETPAFQTDTTPSETGATSTPEAIPALSETTPTVVGAVSAPAEANTPQDATSAPEETK

- binding [3]: binds
B4: endogenous TTDN1 (protein, UniProt Q8TAP9 1-179)
chain: T3 sequence
